Test results published in PMC12167954.
These are yes or no findings as the source states them, for the method shown. Binding can be weak; no strength is given.

Biological target: T1, prothymosin α (ProTα) (UniProt P06454)
T1 sequence: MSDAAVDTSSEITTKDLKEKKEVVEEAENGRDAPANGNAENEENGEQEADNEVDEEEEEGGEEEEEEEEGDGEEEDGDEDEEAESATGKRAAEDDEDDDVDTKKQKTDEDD
Test: associative phase separation (complex coacervation; brightfield microscopy and coexistence measurements of dense and dilute phases); ProTα mixed with a polycation at charge balance in TEK buffer; images at 90 mM KCl (ionic strength 98 mM); phase diagrams as a function of salt concentration; both purified

binding: binds
Substance: protamine
